At least one structure is not confirmed: it was looked up by name or label, or the drawing left a doubt.
System: primary care patients with major depression disorder
Assay: 8-week double-blind, randomised, placebo-controlled, flexible-dose clinical study
Assay type: in vivo, human

CN(C)CCCC1(c2ccc(F)cc2)OCc2cc(C#N)ccc21 (racemic) [citalopram]
difference versus placebo at Week 4 (CGI) (Week 4, last observation carried forward): no statistically significant difference
CGI improvement and severity subscale versus placebo (observed cases, from Week 1 onwards (p<0.05), 4-week period): not statistically different from placebo

— patent US20040192764A1 (H. Lundbeck A/S, priority 2001, published 2004)
